Data taken from PubChem BioAssay AID1159506, deposited by NCATS (2015).

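Luminescence from an EWS-FLI1 target-promoter (NR0B1) reporter, set against a CMV-promoter reporter, two days after silencing single genes in TC32 Ewing sarcoma cells. Each siRNA was applied at 20 nM. A z-score of the log NR0B1-over-CMV signal, less the median of siRNAs with the same seed; more negative means a stronger specific loss of the NR0B1 reporter.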

This is part of the screen; most of the strongest results are not listed here. Sequences are the guide (antisense) strand, without overhang.

With UCCAUUGCUGUCACGGUCU against HIST1H4H the assay gave seed-corrected z-score 0.2385. UUACGCAUGUCUCCUUUCC against HMOX2 read seed-corrected z-score 0.6025. Result for UCCGUAUUAGUACCUCUGC against MSH4 was seed-corrected z-score -1.1. UAAAGAUAAAGGGAGCACC against TMEM5 gave seed-corrected z-score -0.182. AUAGGUCAGAUUCUAAACC against LRRC16A gave seed-corrected z-score -0.1231.

UUUAGAUCCAGAUAAAGAG against SRFBP1 gave seed-corrected z-score -0.1433. UUUCAUCUUGACAAAGUGC against SHROOM4 gave seed-corrected z-score -0.4642. With UCUAAGAGAACCUCCAGGC against ASTN1 the assay gave seed-corrected z-score -0.4512. With UCUGUUGCUCCUGAUUAGC against NFAT5 the assay gave seed-corrected z-score 0.4599. Result for UCGUCUUCUAGGUCAGAUG against LMCD1 was seed-corrected z-score -0.1277.

For UAAAUAAAGUUUCAAGUAG against CHAC1 the result was seed-corrected z-score -0.09498. UAUGAUGCUAUCUAUGACC against HAL gave seed-corrected z-score -0.2228. Result for UAGCGGUUCCAAGAUUAGC against RWDD4 was seed-corrected z-score 0.5516. Result for UUCUUGGAGAGCGCAUAGU against FBXL16 was seed-corrected z-score -0.8818. Result for UGAACUCCUAAAGCUUUCC against TMEM242 was seed-corrected z-score 0.6726.

Result for ACAGCGGACAGGAUAGACG against RHBDF1 was seed-corrected z-score 0.1541. For UAGCGAAUAGAAUCGAGCG against CHRNA5 the result was seed-corrected z-score -0.102. UAUGGCAUCGUUCUACAGC against KRTAP5-4 read seed-corrected z-score 0.4749. Result for UAACUUCUCUGGACAUUCC against ZNF670 was seed-corrected z-score -0.2026. Result for AUUUCUAACAUCAUGAGGC against TAS2R39 was seed-corrected z-score 0.05255.

Result for AAAUUCACCGUAGUCAUCC against RNF216 was seed-corrected z-score 0.4681. For ACAGGGAUGGUUGACUCUC against NMD3P1 the result was seed-corrected z-score 0.7445. UAUGAGUCUUGGUCAACGC against TP53BP2 gave seed-corrected z-score -0.05305. With UUACAUGCUUUUAUAUCUG against CYP39A1 the assay gave seed-corrected z-score -0.8634. Result for UCCGAACUCACCAUGGUCU against C1QB was seed-corrected z-score 0.7573.

For UCAGUAACUAAUUCUUCCU against OXLD1 the result was seed-corrected z-score 0.14. AAUAACCUUAGUUAAGAUC against ARMT1 gave seed-corrected z-score 1.198. With UGGUGGUCCAGGAUAGGAG against CYYR1 the assay gave seed-corrected z-score -0.03316. With UACGCAGAUCCCAUAAAGC against RBBP7 the assay gave seed-corrected z-score 0.3516. With UUAUCCUUGAGCGUAAUCG against CATSPERG the assay gave seed-corrected z-score -0.2065.

UAUGUUGACAAUUACAUCG against HTRA4 gave seed-corrected z-score 0.1806. UGACCUUCAGGACUUCAGC against PPP1R1B read seed-corrected z-score -0.6464. UUGUAGACCAGACAGUGCG against NPHP4 read seed-corrected z-score 0.2714. With ACAGGAAACAUCCUUUUGC against TXNDC8 the assay gave seed-corrected z-score -0.03295. UGAAGAAGCGGUUCUGCCG against C15orf61 read seed-corrected z-score 1.225.

Result for UCCUUACUCCUGGAGAUUC against MAP3K1 was seed-corrected z-score -0.1161. With AAAGGUAAUGCUGUGAUCC against LOC730081 the assay gave seed-corrected z-score 0.6428. Result for UAUAGUCAAGGGCAUAUCC against HPRT1 was seed-corrected z-score -0.7943. With UAUAAUUAGAACAGUCUCC against GLIPR1L2 the assay gave seed-corrected z-score 0.5171. With UAUUGCAAUCGGGAGCUUC against SIRT4 the assay gave seed-corrected z-score -0.335.

Result for UCUGGAGUCUCUUCAUGAG against ENSA was seed-corrected z-score 0.3869. With AAAGUUUGCUGAAUCGAUG against SESTD1 the assay gave seed-corrected z-score 0.09741. Result for UCUAAGAAUAGGAGUGACC against LINC00961 was seed-corrected z-score 0.8396. UCGGAUGUUAAUGUUGUCC against ATAD2B read seed-corrected z-score 0.2073. CUGCCUAAAGCCUGGGUUG against DUSP15 gave seed-corrected z-score -0.3687.

For UGCAGUCUCAGGUGGGUAG against SMYD5 the result was seed-corrected z-score -0.1538. Result for UGUCUUAUUAGGUAAAUCC against DNAH14 was seed-corrected z-score -0.8142. For UUUCUGUAUCUAUAUGAUC against TIPRL the result was seed-corrected z-score -0.07119. For AGAUGAAACACUGGAAACU against LOC131055 the result was seed-corrected z-score 0.2967. Result for UUUCCAUCCGUGUCAACCG against CALML5 was seed-corrected z-score 0.01049.

6 of the entries, repeated:

* UCCGUAUUAGUACCUCUGC against MSH4 | seed-corrected z-score -1.1
* UUUAGAUCCAGAUAAAGAG against SRFBP1 | seed-corrected z-score -0.1433
* UACGCAGAUCCCAUAAAGC against RBBP7 | seed-corrected z-score 0.3516
* AAAUUCACCGUAGUCAUCC against RNF216 | seed-corrected z-score 0.4681
* UGGUGGUCCAGGAUAGGAG against CYYR1 | seed-corrected z-score -0.03316
* UAAAGAUAAAGGGAGCACC against TMEM5 | seed-corrected z-score -0.182